Changes are numbered by the printed parent chain. These are yes or no findings as the source states them, for the method shown. Some results given as binding are weak or reduced against the parent protein; the word gives no strength. For some assays here: Where a sequence is shown, tags or fusion partners need not be part of it.
T1: CD123 Protein, His Tag, Acro Biosciences Cat. No. ILA-H52H6 (Homo sapiens (Human)) (UniProt P26951)
T1 sequence: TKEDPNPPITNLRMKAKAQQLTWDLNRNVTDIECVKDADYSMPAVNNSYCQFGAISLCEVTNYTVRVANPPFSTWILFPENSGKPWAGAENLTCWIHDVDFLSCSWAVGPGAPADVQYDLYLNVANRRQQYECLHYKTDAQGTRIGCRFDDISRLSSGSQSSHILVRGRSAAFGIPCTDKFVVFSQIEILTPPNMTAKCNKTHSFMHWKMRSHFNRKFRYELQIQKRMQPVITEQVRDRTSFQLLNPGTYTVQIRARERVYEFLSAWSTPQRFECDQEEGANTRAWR

T2: CD123 protein (R&D Systems Catalog No. 301-R3-025/CF) (Homo sapiens (Human)) (UniProt P26951)
T2 sequence: T1 sequence

B1: MYT2765 (antibody, V domains shown)
VH: QVQLVQSGAEVKKPGASVKVSCKASGHIFTSSIMAWVRQAPGQGLEWIGYIKPYNDGTKYNEKFKGRATLTSDRSTSTAYMELSSLRSEDTAVYYCAREGGNDYYDTMHYWGQGTLVTVSS
VL: DIQMTQSPSSLSASVGDRVTITCRASQDINSYLSWFQQKPGKAPKTLIYRVNRLVDGVPSRFSGSGSGNDYTLTISSLQPEDFATYYCLQYDAFPYTFGQGTKVEIK
B2: MYT2766 (antibody, V domains shown)
VH: B1 VH with A35H, Y105H, T107H, H109D
VL: B1 VL
B3: MYT2767 (antibody, V domains shown)
VH: B1 VH with A35H, Y105H
VL: B1 VL
B4: MYT2768 (antibody, V domains shown)
VH: B1 VH with A35H, T107H
VL: B1 VL
B5: MYT2769 (antibody, V domains shown)
VH: B1 VH with H27Y, Y105H, T107H, H109D
VL: B1 VL
B6: MYT2770 (antibody, V domains shown)
VH: B1 VH with H27Y, Y105H
VL: B1 VL
B7: MYT2771 (antibody, V domains shown)
VH: B1 VH with H27Y, T107H
VL: B1 VL
B8: MYT2772 (antibody, V domains shown)
VH: B1 VH with H27Y, A35H, Y105H, T107H
VL: B1 VL
B9: MYT5498 (antibody, V domains shown)
VH: EVQLLESGGGLVQPGGSLRLSCAVSDYSITSGYYWNWIRQAPGKKLEWMGYISYDGSNNYNPSLKNGRITISRDTSKNTFYLQMNSLRAEDTAVYYCARGEGFYFDSWGQGTLVTVSS
VL: EIVLTQSPGTLSLSPGERATLSCKSSQSLFFGSTQKNYLAWYQQKPGQAPRLLIYWAHTRESGIPDRFSGSGSGTDFTLTISRLEPEDFAVYYCQQYYNYPWTFGQGTKLEIK
B10: MYT5499 (antibody, V domains shown)
VH: B9 VH
VL: B9 VL with H58S, T59H
B11: MYT5500 (antibody, V domains shown)
VH: B9 VH
VL: B9 VL with H58S, R60H
B12: MYT5501 (antibody, V domains shown)
VH: B9 VH
VL: B9 VL with H58S, E61H
B13: MYT5502 (antibody, V domains shown)
VH: B9 VH
VL: B9 VL with H58S, S62H
B14: MYT5506 (antibody, V domains shown)
VH: B9 VH
VL: B9 VL with H58S, Y98H
B15: MYT5507 (antibody, V domains shown)
VH: B9 VH
VL: B9 VL with H58S, N99H
B16: MYT5508 (antibody, V domains shown)
VH: B9 VH
VL: B9 VL with H58S, Y100H
B17: MYT5511 (antibody, V domains shown)
VH: B9 VH
VL: B9 VL with H58S, T103H

Biological target: T1, CD123 Protein, His Tag, Acro Biosciences Cat. No. ILA-H52H6 (Homo sapiens (Human))
Assay: BLI, IgG on anti-human Fc sensor, 50 nM CD123, pH 7.4 and pH 5.4

binding, binds:
B1
B2
B3
B4
B5
B6
B7
B8

Biological target: T2, CD123 protein (R&D Systems Catalog No. 301-R3-025/CF) (Homo sapiens (Human))
Assay: as above

binding, binds:
B9
B10
B11
B12
B13
B14
B15
B16
B17

Reference: patent US20220306751A1 (MYTHIC THERAPEUTICS, published 2022)
